Test results published in the supplement of paper PMC10849652.
The other results are listed elsewhere or left out.

By UniProt entry, the sequences of proteins in these tests, tags left out. Where a name states a change or a piece, a line headed by the entry shows the natural chain unless it says otherwise.
UniProt Q8IWY9: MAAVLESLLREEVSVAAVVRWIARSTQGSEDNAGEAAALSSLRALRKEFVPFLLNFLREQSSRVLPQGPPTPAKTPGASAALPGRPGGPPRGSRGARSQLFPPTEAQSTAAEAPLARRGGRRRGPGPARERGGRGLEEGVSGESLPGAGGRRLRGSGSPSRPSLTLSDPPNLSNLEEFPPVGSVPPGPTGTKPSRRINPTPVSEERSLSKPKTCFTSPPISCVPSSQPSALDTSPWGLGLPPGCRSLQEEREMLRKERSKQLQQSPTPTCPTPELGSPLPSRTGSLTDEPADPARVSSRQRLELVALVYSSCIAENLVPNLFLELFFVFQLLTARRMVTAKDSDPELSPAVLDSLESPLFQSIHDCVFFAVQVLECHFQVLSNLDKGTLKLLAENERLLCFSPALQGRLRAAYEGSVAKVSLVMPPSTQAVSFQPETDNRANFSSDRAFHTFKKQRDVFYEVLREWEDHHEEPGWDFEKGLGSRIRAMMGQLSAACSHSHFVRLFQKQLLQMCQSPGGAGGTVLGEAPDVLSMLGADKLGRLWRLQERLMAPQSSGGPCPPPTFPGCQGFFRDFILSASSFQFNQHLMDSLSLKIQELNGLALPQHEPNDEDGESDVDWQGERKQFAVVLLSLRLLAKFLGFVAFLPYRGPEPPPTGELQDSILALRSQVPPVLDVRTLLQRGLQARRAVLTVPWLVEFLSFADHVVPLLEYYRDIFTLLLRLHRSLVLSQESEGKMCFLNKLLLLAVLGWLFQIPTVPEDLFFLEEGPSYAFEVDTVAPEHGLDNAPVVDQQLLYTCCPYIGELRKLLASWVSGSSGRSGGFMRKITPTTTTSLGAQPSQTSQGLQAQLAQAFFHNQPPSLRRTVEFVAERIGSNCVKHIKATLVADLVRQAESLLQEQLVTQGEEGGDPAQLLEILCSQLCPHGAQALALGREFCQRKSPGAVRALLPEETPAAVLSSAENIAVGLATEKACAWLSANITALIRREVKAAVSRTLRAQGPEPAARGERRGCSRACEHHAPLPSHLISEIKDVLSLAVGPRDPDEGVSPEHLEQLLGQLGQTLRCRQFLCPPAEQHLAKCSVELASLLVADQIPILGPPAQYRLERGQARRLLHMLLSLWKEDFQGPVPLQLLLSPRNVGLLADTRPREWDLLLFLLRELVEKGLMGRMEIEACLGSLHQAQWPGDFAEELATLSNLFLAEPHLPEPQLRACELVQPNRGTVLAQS
UniProt Q71F23: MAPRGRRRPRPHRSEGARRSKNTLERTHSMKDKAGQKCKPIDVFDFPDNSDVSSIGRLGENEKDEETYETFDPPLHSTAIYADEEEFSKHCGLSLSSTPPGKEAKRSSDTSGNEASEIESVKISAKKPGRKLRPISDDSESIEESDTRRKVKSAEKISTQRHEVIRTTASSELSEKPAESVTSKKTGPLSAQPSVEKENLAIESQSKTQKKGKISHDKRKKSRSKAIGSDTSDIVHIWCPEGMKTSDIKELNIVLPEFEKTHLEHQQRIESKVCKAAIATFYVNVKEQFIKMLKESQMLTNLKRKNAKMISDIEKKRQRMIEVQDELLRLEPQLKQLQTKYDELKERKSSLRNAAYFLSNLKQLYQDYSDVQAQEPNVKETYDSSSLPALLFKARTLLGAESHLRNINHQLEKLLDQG
UniProt P30260, whole entry, looked up: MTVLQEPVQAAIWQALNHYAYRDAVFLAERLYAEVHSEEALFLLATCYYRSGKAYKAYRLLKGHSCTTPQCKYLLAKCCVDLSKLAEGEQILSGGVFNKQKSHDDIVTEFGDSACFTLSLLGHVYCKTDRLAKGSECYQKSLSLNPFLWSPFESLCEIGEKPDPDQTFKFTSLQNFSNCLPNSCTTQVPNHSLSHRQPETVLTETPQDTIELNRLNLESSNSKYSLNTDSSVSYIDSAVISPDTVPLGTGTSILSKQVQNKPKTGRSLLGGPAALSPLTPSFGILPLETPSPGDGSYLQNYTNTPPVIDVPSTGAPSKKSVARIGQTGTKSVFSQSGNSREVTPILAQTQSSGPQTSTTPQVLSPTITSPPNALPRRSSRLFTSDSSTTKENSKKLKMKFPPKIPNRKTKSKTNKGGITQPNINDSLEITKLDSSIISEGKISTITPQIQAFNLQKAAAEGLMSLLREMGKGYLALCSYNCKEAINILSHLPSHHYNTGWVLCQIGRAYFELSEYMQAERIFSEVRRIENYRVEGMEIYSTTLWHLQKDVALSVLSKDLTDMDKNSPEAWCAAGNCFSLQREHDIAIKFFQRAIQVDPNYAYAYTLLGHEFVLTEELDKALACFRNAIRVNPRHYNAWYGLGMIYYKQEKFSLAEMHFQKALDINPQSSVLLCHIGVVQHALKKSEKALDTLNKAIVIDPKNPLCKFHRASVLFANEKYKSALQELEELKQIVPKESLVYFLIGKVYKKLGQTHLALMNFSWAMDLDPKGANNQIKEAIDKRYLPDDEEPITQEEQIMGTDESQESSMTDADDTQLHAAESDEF
UniProt P06493, whole entry, looked up: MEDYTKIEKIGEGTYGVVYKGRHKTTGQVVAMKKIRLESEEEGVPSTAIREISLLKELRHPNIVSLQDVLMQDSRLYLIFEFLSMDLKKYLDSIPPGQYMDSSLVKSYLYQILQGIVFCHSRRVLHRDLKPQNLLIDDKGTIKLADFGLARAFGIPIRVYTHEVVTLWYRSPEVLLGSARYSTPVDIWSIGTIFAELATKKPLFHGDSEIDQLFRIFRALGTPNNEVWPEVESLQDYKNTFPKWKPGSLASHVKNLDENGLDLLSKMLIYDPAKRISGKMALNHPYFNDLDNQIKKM
UniProt Q66GS9: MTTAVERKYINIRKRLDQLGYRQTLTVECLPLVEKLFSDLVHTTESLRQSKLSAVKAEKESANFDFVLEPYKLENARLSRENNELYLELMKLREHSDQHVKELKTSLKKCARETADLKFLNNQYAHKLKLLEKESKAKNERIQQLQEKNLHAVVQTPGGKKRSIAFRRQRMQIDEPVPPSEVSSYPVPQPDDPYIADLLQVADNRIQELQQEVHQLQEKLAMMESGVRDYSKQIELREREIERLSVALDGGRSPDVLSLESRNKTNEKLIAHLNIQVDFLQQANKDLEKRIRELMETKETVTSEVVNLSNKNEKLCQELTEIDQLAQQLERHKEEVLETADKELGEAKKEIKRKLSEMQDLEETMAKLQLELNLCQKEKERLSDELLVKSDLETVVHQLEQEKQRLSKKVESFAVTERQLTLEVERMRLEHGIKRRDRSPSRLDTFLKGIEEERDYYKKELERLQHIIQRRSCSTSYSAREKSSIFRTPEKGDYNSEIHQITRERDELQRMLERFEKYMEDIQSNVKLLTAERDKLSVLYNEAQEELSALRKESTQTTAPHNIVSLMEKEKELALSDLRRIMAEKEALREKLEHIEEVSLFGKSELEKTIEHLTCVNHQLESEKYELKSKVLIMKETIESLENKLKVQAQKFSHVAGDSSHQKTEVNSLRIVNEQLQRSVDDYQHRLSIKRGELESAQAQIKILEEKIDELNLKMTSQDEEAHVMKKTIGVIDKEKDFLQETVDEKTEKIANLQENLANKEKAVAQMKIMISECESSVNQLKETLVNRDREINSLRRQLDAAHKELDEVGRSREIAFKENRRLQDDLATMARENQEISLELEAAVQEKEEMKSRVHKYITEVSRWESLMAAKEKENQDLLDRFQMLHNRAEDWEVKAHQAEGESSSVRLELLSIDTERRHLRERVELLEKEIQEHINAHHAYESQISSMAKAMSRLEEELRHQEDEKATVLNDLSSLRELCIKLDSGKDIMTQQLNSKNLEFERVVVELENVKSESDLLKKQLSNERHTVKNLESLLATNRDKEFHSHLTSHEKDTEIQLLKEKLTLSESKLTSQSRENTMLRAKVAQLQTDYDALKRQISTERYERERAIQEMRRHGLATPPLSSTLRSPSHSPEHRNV
UniProt Q8N2Z9: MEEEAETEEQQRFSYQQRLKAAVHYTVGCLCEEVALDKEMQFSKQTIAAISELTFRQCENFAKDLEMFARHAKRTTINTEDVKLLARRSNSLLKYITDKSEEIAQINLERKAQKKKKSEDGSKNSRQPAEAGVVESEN
UniProt Q9Y232: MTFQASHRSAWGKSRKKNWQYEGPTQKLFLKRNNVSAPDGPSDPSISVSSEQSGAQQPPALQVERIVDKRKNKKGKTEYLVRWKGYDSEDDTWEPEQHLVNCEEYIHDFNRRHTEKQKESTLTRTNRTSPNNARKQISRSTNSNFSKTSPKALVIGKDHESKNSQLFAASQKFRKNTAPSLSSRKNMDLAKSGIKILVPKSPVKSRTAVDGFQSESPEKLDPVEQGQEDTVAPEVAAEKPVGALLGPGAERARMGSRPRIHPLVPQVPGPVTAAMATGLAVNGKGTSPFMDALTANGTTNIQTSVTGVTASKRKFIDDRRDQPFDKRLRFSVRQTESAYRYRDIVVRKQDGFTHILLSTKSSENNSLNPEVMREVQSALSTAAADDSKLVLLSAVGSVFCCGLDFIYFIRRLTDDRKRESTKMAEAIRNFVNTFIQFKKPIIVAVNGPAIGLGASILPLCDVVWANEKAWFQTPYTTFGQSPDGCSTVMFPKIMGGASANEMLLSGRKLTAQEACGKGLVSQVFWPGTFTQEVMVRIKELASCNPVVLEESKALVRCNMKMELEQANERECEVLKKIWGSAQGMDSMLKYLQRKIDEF
UniProt Q9Y5S2: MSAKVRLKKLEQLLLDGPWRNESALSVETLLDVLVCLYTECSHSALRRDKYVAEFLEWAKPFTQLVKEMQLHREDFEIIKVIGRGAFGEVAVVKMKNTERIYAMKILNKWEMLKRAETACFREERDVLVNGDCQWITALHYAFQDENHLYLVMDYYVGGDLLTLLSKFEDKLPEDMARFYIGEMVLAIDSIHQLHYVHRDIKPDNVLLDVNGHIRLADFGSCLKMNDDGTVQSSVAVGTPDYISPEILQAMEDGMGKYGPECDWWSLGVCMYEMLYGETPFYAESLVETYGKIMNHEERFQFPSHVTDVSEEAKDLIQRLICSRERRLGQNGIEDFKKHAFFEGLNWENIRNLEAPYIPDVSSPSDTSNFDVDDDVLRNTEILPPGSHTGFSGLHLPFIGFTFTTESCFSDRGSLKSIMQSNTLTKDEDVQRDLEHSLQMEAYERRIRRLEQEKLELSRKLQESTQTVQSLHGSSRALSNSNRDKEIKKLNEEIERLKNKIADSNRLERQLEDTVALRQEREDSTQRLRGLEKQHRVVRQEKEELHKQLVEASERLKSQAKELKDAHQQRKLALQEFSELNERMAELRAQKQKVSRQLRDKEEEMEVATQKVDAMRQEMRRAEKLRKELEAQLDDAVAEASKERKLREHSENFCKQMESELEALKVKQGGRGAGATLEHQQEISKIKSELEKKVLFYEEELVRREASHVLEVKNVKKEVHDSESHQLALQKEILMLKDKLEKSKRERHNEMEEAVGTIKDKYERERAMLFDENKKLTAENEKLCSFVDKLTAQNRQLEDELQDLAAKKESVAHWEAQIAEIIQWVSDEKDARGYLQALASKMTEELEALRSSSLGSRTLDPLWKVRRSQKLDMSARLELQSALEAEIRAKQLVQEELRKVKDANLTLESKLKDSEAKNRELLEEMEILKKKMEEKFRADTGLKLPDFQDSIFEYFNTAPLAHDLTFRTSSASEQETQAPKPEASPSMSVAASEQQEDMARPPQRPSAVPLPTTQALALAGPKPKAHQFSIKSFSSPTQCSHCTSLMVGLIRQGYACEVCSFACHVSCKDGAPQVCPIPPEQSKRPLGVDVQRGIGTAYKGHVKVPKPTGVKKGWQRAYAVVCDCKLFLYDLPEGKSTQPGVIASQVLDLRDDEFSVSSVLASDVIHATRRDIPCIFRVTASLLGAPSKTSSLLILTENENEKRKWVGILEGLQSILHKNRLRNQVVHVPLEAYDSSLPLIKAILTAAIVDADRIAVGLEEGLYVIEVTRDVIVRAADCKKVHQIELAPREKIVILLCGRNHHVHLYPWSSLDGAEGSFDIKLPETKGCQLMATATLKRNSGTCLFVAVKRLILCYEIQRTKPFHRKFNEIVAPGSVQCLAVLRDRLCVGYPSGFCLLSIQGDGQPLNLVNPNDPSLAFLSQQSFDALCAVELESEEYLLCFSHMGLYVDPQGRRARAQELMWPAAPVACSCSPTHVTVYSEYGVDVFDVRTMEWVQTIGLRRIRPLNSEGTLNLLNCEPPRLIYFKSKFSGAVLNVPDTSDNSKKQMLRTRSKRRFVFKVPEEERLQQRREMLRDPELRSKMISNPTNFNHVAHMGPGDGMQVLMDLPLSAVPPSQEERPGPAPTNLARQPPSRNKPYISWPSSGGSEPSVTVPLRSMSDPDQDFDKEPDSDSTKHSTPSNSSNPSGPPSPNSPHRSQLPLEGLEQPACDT

What was measured:
Assay in all cases: log2 fold change, soluble protein after heating vs DMSO (PISA); higher = thermal stabilisation; K562 lysate, 10 uM; active = over 0.2 and 3.5 SD of the protein, either way, in both replicates (recomputed)
ibrutinib = compound: C=CC(=O)N1CCC[C@@H](n2nc(-c3ccc(Oc4ccccc4)cc3)c3c(N)ncnc32)C1 [ibrutinib]
Outline: (§1)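 K562 pellets were dounce-homogenised in PBS pH 7.4 with 1 mM MgCl2, and the crude extract at 1 mg/mL protein was treated with 10 μM compound for 30 min. Aliquots were heated for 3 min across 48°C-58°C, pooled, and brought to 0.5% NP-40 at 4°C; soluble protein was the supernatant after 21,000xg for 90 min. Soluble protein was quantified by TMTpro 16plex LC-MS/MS with channel sums equalised, and reported as log2 fold change in thermal stability against DMSO controls, with values from duplicates.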

[1] = compound: CC(=O)c1cnc2ccc(-c3cc(Cl)c(O)c(Cl)c3)nc2c1N[C@H]1CC[C@H](CN(C)C)CC1
Outline: as §1

ralimetinib = compound: CC(C)(C)Cn1c(N)nc2ccc(-c3[nH]c(C(C)(C)C)nc3-c3ccc(F)cc3)nc21 [ralimetinib]
Outline: as §1

[2] = compound: CC(C)(O)CC(=O)NCCn1ccc2ncnc(Nc3ccc(Oc4cccc(C(F)(F)F)c4)c(Cl)c3)c21
Outline: as §1

[3] = compound: CC(C)C1=C2N=C(C=C(N2N=C1)NCC3=CC=CC=C3)NCCCCCCN
Outline: as §1

[4] = compound: CC1=C(C(CC(=O)N1)C2=CC=C(C=C2)C(F)(F)F)C(=O)NC3=C(C=C4C(=C3)C=NN4)F
Outline: as §1

[5] = compound: CC1=C(C2=C(C=C1)C(=O)C3=CC=CC=C3N2CCCN)C
Outline: as §1

[6] = compound: CC1=C(C=C(C=C1)NC(=O)C2=CC(=CC=C2)C(C)(C)C#N)NC3=CC4=C(C=C3)N=CN(C4=O)C
Outline: as §1

[7] = compound: CC1=C(C=C(C=C1)NC(=O)C2=CC(=CC=C2)N(C)C)NC(=O)C3=CC=C(C=C3)O
Outline: as §1

[8] = compound: CC1=CC=C(C=C1)SC2=C3C=C(SC3=CN=C2)C(=O)N
Outline: as §1

vemurafenib = compound: CCCS(=O)(=O)Nc1ccc(F)c(C(=O)c2c[nH]c3ncc(-c4ccc(Cl)cc4)cc23)c1F [vemurafenib]
Outline: as §1

[9] = compound: CCCS(=O)(=O)Nc1ccc(F)c(C(=O)c2c[nH]c3ncc(Cl)cc23)c1F
Outline: as §1

barasertib = compound: CCN(CCCOc1ccc2c(Nc3cc(CC(=O)Nc4cccc(F)c4)[nH]n3)ncnc2c1)CCOP(=O)(O)O [barasertib]
Outline: as §1

[10] = compound: CC[C@@H]1C(=O)N(C)c2cnc(Nc3ccc(C(=O)NC4CCN(C)CC4)cc3OC)nc2N1C1CCCC1
Outline: as §1

volasertib = compound: CC[C@@H]1C(=O)N(C)c2cnc(Nc3ccc(C(=O)N[C@H]4CC[C@H](N5CCN(CC6CC6)CC5)CC4)cc3OC)nc2N1C(C)C [volasertib]
Outline: as §1

[11] = compound: CCn1c(C(=O)N(C2CC2)C2CC2)cc2c3c(ncn3C)c(Nc3cc(C)n(C)n3)nc21
Outline: as §1

[12] = compound: CCn1cc(-c2ccnc3[nH]c(-c4cccc(CN(C)C)c4)cc23)c(-c2ccc(NC(=O)N(C)C)cc2)n1
Outline: as §1

[13] = compound: CN1CCC(CNc2ccc3ncc(-c4cccc(OC(F)(F)F)c4)n3n2)CC1
Outline: as §1

saracatinib = compound: CN1CCN(CCOc2cc(OC3CCOCC3)c3c(Nc4c(Cl)ccc5c4OCO5)ncnc3c2)CC1 [saracatinib]
Outline: as §1

sotrastaurin = compound: CN1CCN(c2nc(C3=C(c4c[nH]c5ccccc45)C(=O)NC3=O)c3ccccc3n2)CC1 [sotrastaurin]
Outline: as §1

Row | Target | log2 fold change (ibrutinib) | log2 fold change [1] | log2 fold change (ralimetinib) | log2 fold change [2] | log2 fold change [3] | log2 fold change [4] | log2 fold change [5] | log2 fold change [6] | log2 fold change [7] | log2 fold change [8] | log2 fold change (vemurafenib) | log2 fold change [9] | log2 fold change (barasertib) | log2 fold change [10] | log2 fold change (volasertib) | log2 fold change [11] | log2 fold change [12] | log2 fold change [13] | log2 fold change (saracatinib) | log2 fold change (sotrastaurin)
1 | CDAN1 (UniProt Q8IWY9) | inactive: 0.035 | inactive: -0.004 | inactive: 0 | inactive: -0.029 | inactive: -0.02 | inactive: -0.001 | inactive: -0.023 | inactive: 0.035 | inactive: 0.056 | inactive: -0.008 | inactive: -0.047 | inactive: 0.004 | inactive: 0.014 | inactive: -0.093 | inactive: -0.034 | inactive: 0.031 | inactive: -0.03 | inactive: -0.012 | inactive: 0.002 | inactive: -0.005
2 | CERT isoform 3 (UniProt Q9Y5P4) | inactive: 0.021 | inactive: 0.004 | inactive: 0.002 | inactive: -0.006 | inactive: -0.021 | inactive: 0.016 | inactive: -0.028 | inactive: 0.003 | inactive: 0.019 | inactive: 0.013 | inactive: 0.001 | inactive: 0.022 | inactive: 0.001 | inactive: 0.007 | inactive: -0.003 | inactive: 0.005 | inactive: -0.013 | inactive: 0.028 | inactive: -0.023 | inactive: 0.003
3 | CENPU (UniProt Q71F23) | inactive: 0.042 | inactive: 0.127 | inactive: -0.003 | inactive: -0.009 | inactive: -0.005 | inactive: -0.021 | inactive: -0.021 | inactive: -0.042 | inactive: 0.049 | inactive: 0.085 | inactive: 0.044 | inactive: -0.091 | inactive: -0.085 | inactive: 0.083 | inactive: -0.055 | inactive: 0.022 | inactive: 0.166 | inactive: -0.034 | inactive: 0.001 | inactive: -0.014
4 | CDK5RAP3 isoform 4 (UniProt Q96JB5) | inactive: -0.01 | inactive: -0.001 | inactive: -0.022 | inactive: -0.022 | inactive: -0.016 | inactive: 0.004 | inactive: 0.013 | inactive: 0.025 | inactive: 0.017 | inactive: 0.014 | inactive: 0.023 | inactive: 0.013 | inactive: 0.022 | inactive: -0.008 | inactive: -0.051 | inactive: 0.029 | active: -0.313 | inactive: 0.216 | inactive: -0.002 | inactive: -0.021
5 | CFAP298 (UniProt P57076) | inactive: -0.043 | inactive: 0.002 | inactive: 0.014 | inactive: 0.014 | inactive: 0.008 | inactive: -0.015 | inactive: 0.088 | inactive: -0.028 | inactive: 0.042 | inactive: 0.003 | inactive: 0.022 | inactive: 0.024 | inactive: 0.004 | inactive: -0.008 | inactive: -0.019 | inactive: -0.002 | inactive: -0.006 | inactive: -0.026 | inactive: 0.029 | inactive: 0.005
6 | CDKAL1 (UniProt Q5VV42) | inactive: 0.024 | inactive: 0.018 | inactive: -0.004 | inactive: 0.025 | inactive: -0.019 | inactive: -0.031 | inactive: -0.006 | inactive: 0.014 | inactive: 0.042 | inactive: -0.051 | inactive: -0.009 | inactive: 0.058 | inactive: 0 | inactive: 0.024 | inactive: -0.033 | inactive: -0.011 | inactive: -0.025 | inactive: -0.031 | inactive: 0.018 | inactive: 0.033
7 | CDC27 isoform 2 (UniProt P30260) | inactive: -0.012 | inactive: -0.018 | inactive: 0.009 | inactive: 0.004 | inactive: -0.005 | inactive: -0.015 | inactive: -0.007 | inactive: 0.014 | inactive: -0.02 | inactive: 0.028 | inactive: -0.007 | inactive: 0.011 | inactive: 0.013 | inactive: -0.024 | inactive: -0.022 | inactive: 0.017 | inactive: -0.015 | inactive: -0.042 | inactive: 0.015 | inactive: -0.017
8 | CDK1 (UniProt P06493) | inactive: -0.071 | active: 0.433 | inactive: 0.018 | inactive: -0.037 | inactive: -0.026 | inactive: -0.029 | inactive: 0.01 | inactive: 0.033 | inactive: 0.011 | inactive: 0 | inactive: 0.012 | inactive: -0.017 | inactive: -0.029 | inactive: -0.041 | inactive: -0.037 | inactive: -0.006 | inactive: -0.056 | inactive: -0.049 | inactive: 0.016 | inactive: -0.002
9 | CDK4 (UniProt P11802) | inactive: 0.072 | inactive: 0.137 | inactive: -0.032 | inactive: -0.052 | inactive: -0.007 | inactive: 0 | inactive: -0.066 | inactive: -0.019 | inactive: -0.009 | inactive: -0.035 | inactive: -0.004 | inactive: 0.029 | inactive: 0.069 | inactive: -0.015 | inactive: -0.03 | inactive: -0.031 | inactive: 0.274 | inactive: -0.023 | inactive: 0.043 | inactive: 0.034
10 | CDC42BPA isoform 6 (UniProt Q5VT25) | inactive: 0.016 | inactive: 0.039 | inactive: 0.012 | inactive: -0.013 | inactive: 0.03 | inactive: 0.005 | inactive: -0.004 | inactive: 0.018 | inactive: 0.034 | inactive: -0.003 | inactive: 0.01 | inactive: 0.036 | inactive: -0.006 | inactive: -0.111 | inactive: -0.043 | inactive: 0.021 | inactive: 0.062 | inactive: -0.118 | inactive: -0.021 | inactive: -0.023
11 | CEP135 (UniProt Q66GS9) | inactive: 0.001 | inactive: -0.009 | inactive: -0.012 | inactive: -0.022 | inactive: 0.026 | inactive: -0.014 | inactive: 0.026 | inactive: 0.087 | inactive: 0.037 | inactive: -0.016 | inactive: -0.02 | inactive: 0.049 | inactive: 0.07 | inactive: -0.076 | inactive: 0.004 | inactive: -0.02 | inactive: -0.126 | inactive: 0.048 | inactive: 0.035 | inactive: 0.007
12 | CENPS (UniProt Q8N2Z9) | inactive: -0.114 | inactive: -0.064 | inactive: -0.002 | inactive: -0.071 | inactive: -0.019 | inactive: -0.197 | inactive: 0.004 | inactive: 0.06 | inactive: 0.017 | inactive: -0.069 | inactive: -0.016 | inactive: 0.043 | inactive: -0.046 | inactive: 0.063 | inactive: 0.058 | inactive: -0.054 | inactive: -0.376 | inactive: -0.008 | inactive: 0.053 | inactive: 0.008
13 | CERS6 isoform 2 (UniProt Q6ZMG9) | inactive: 0.061 | inactive: -0.093 | inactive: 0.059 | inactive: -0.035 | inactive: 0 | inactive: -0.029 | inactive: -0.066 | inactive: 0.016 | inactive: 0.097 | inactive: -0.04 | inactive: -0.03 | inactive: 0.146 | inactive: -0.074 | inactive: -0.18 | inactive: 0.03 | inactive: -0.05 | inactive: -0.097 | inactive: 0.175 | inactive: -0.141 | inactive: 0.118
14 | CDYL (UniProt Q9Y232) | inactive: 0.022 | inactive: 0.026 | inactive: -0.032 | inactive: -0.023 | inactive: 0.02 | inactive: 0.113 | inactive: -0.046 | inactive: -0.015 | inactive: -0.017 | inactive: -0.03 | inactive: -0.076 | inactive: 0.013 | inactive: -0.03 | inactive: 0.019 | inactive: 0.036 | inactive: 0.051 | inactive: -0.01 | inactive: 0.038 | inactive: -0.027 | inactive: 0.013
15 | CDC42BPB (UniProt Q9Y5S2) | inactive: 0 | inactive: -0.025 | inactive: -0.05 | inactive: -0.066 | inactive: 0.08 | inactive: -0.065 | inactive: -0.061 | inactive: 0.205 | inactive: -0.005 | inactive: 0.008 | inactive: 0.074 | inactive: 0.038 | inactive: 0.022 | inactive: -0.079 | inactive: -0.011 | inactive: -0.011 | inactive: 0.242 | inactive: -0.233 | inactive: -0.003 | inactive: -0.029

Laid out differently: entries from further up.
Row,Target,log2 fold change (ibrutinib),log2 fold change [1],log2 fold change (ralimetinib),log2 fold change [2],log2 fold change [3],log2 fold change [4],log2 fold change [5],log2 fold change [6],log2 fold change [7],log2 fold change [8],log2 fold change (vemurafenib),log2 fold change [9],log2 fold change (barasertib),log2 fold change [10],log2 fold change (volasertib),log2 fold change [11],log2 fold change [12],log2 fold change [13],log2 fold change (saracatinib),log2 fold change (sotrastaurin)
6,CDKAL1 (UniProt Q5VV42),inactive: 0.024,inactive: 0.018,inactive: -0.004,inactive: 0.025,inactive: -0.019,inactive: -0.031,inactive: -0.006,inactive: 0.014,inactive: 0.042,inactive: -0.051,inactive: -0.009,inactive: 0.058,inactive: 0,inactive: 0.024,inactive: -0.033,inactive: -0.011,inactive: -0.025,inactive: -0.031,inactive: 0.018,inactive: 0.033
7,CDC27 isoform 2 (UniProt P30260),inactive: -0.012,inactive: -0.018,inactive: 0.009,inactive: 0.004,inactive: -0.005,inactive: -0.015,inactive: -0.007,inactive: 0.014,inactive: -0.02,inactive: 0.028,inactive: -0.007,inactive: 0.011,inactive: 0.013,inactive: -0.024,inactive: -0.022,inactive: 0.017,inactive: -0.015,inactive: -0.042,inactive: 0.015,inactive: -0.017
